Test results as given in publication PMC11321679.
Weaker means in comparison with the reference protein, sequence or condition of that experiment. For at least one entry, the source does not settle the construct or the ends of the probe.

Tested on: human alpha-thrombin (human)
Test: thrombin activity inhibition (light scattering)
Settings: Thrombin 0.75 U/mL preincubated with aptamer, fibrinogen 1.25 mg/mL, scattering at 650 nm; commercial protein

AAAAAAAAAAAAAAAAAAAAGGTTGGTGTGGTTGG / TTTTTTTTTTTTTTTTTTTTTCAGTGGGGTTGGACGGGATGGTGCCTGA [HD1(20A)-HD22(20T)]
binding result: binds more weakly

AGTCCGTGGTAGGGCAGGTTGGGGTGACTAAAAAAAAAAAAAAAAAAAA / GGTTGGTGTGGTTGGTTTTTTTTTTTTTTTTTTTT [HD22(20A)-HD1(20T)]
binding result: binds more weakly
